Assay results reported in patent US20030024001A1, “Knock in transgenic mammal containing a non-functional N-terminus of Kv beta 1.1 subunit” (Wyeth, priority 2001, published 2003).
At least one compound was matched to its structure with a doubt left.

Tested on: male WT (129/SvEv) mice
Test: Stress-induced hyperthermia
Type: in vivo, mouse
Conditions: FIG. 5A

CNC1=Nc2ccc(Cl)cc2C(c2ccccc2)=[N+]([O-])C1 [chlordiazepoxide]
effect on stress-induced hyperthermia (T2 vs T1 core body temperature) (5 or 10 mg/kg intraperitoneally, 60 min before T1, T2 10 min later, compared to control vehicle): prevented the stress-induced hyperthermia
change in recorded body temperature after rectal probe stress (dosage level of 10 mg/kg intraperitoneally): induced a drop in recorded temperature
